# Experimental data as given in PMC3093395.
# By UniProt entry, the sequences of proteins in these tests, tags left out. Where a name states a change or a piece, a line headed by the entry shows the natural chain unless it says otherwise.
# UniProt Q8BX22: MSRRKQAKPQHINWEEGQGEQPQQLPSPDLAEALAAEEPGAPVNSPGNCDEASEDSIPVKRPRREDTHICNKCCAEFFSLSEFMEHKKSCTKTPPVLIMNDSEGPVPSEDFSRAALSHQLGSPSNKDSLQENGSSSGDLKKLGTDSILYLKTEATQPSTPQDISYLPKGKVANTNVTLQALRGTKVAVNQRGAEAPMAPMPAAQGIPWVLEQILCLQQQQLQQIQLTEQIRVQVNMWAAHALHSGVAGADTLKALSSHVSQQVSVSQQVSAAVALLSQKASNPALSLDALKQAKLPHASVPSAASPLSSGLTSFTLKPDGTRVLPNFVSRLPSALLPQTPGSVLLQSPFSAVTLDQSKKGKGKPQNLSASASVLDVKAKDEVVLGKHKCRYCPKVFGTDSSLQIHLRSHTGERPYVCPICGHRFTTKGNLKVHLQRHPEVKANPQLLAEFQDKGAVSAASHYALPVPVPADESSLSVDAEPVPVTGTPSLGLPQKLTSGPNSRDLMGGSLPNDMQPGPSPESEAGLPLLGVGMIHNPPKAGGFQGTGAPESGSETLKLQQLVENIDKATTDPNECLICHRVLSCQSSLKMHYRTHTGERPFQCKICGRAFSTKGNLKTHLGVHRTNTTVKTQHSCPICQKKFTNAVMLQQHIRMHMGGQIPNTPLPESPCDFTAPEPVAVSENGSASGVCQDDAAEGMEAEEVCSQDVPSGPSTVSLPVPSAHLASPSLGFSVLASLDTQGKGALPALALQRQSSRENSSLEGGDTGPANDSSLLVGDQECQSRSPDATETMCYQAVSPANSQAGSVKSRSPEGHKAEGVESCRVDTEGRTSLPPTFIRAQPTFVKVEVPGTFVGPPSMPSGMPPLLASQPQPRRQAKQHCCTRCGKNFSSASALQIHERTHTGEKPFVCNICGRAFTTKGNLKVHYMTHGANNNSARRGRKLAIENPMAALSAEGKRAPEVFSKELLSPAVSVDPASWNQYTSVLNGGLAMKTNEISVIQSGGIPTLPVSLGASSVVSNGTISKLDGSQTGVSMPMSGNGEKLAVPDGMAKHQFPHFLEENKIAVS
# UniProt P48432: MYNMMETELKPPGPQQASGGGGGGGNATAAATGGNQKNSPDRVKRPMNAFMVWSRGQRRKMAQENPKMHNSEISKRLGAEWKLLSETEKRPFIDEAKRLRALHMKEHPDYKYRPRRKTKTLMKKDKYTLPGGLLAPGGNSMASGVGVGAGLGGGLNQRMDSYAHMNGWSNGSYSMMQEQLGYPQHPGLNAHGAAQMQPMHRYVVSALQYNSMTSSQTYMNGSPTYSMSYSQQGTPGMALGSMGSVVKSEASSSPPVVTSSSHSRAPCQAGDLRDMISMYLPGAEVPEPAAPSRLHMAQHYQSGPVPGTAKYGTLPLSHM
# UniProt Q07104: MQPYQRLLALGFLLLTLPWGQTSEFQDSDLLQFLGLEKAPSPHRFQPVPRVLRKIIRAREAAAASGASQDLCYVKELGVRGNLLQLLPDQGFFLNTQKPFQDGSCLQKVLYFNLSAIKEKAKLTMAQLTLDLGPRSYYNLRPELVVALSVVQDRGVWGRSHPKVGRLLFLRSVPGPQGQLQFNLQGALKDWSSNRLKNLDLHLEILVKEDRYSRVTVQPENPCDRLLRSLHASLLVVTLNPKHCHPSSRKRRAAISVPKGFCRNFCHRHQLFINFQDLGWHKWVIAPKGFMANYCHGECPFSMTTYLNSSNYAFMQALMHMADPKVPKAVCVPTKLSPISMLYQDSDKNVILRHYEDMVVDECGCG
# No constants are given. Whether binding was seen depends on the method and setting. Binding seen in cells or lysates may run through a third protein. These calls come from enrichment with a bait or labelling near it, and not all partners need be listed. For some assays here: Where a sequence is shown, tags or fusion partners need not be part of it.
# T1: Nanog-LAP (mouse (BAC transgene in mouse R1/E ESC)), Q80Z64
# T1 chain: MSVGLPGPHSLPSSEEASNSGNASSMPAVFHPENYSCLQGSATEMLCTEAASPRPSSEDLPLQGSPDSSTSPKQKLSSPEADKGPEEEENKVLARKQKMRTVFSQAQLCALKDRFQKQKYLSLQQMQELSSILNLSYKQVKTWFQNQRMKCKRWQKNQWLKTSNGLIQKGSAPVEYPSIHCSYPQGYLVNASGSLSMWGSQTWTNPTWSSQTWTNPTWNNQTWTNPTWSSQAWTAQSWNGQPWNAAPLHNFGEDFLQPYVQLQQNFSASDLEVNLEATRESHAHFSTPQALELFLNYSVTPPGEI
# T2: Nanog-LAP (mouse (BAC transgene in mouse R1/E ESC)) (UniProt Q80Z64)
# T2 sequence: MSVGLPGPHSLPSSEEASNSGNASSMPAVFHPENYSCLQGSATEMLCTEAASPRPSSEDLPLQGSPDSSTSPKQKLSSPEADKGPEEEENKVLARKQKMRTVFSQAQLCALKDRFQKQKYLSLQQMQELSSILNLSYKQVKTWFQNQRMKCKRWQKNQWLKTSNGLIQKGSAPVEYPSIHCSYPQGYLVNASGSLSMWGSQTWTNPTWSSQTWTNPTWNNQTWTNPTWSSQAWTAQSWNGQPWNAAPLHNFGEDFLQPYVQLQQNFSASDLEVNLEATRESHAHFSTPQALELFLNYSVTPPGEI
# Target: T1, Nanog-LAP (mouse (BAC transgene in …))
# Assay: affinity purification with mass spectrometry; immunoprecipitation of LAP-tagged Nanog from nuclear extracts of Nanog-LAP ESC, wildtype ESC as control; shotgun mass spectrometry
# Conditions: remark: other sources report otherwise
row,binding,Molecule
1,binds,"Rnf2, Q9CQJ4 1-336 (protein) MSQAVQTNGTQPLSKTWELSLYELQRTPQEAITDGLEIVVSPRSLHSELMCPICLDMLKNTMTTKECLHRFCADCIITALRSGNKECPTCRKKLVSKRSLRPDPNFDALISKIYPSRDEYEAHQERVLARINKHNNQQALSHSIEEGLKIQAMNRLQRGKKQQIENGSGAEDNGDSSHCSNASTHSNQEAGPSNKRTKTSDDSGLELDNNNAAVAIDPVMDGASEIELVFRPHPTLMEKDDSAQTRYIKTSGNATVDHLSKYLAVRLALEELRSKGESNQMNLDTASEKQYTIYIATASGQFTVLNGSFSLELVSEKYWKVNKPMELYYAPTKEHK"

# Target: T2, Nanog-LAP (mouse (BAC transgene in mouse R1/E ESC))
# Assay: as above
# Conditions: not given
row,binding,Molecule
1,binds,Sall4 (from UniProt Q8BX22 1-1067)
2,binds,Sox2 (from UniProt P48432 1-319)
3,binds,"Zfp281 (protein, UniProt Q99LI5 1-893) MKIGSGFLSGGGGPSSSGGSGSGGSSGSASGGSGGGRRAEMEPTFPQSMVMFNHRLPPVTSFTRPAGTAAPPPQCVLSSSTSAAPAAEPPPPPAPDMTFKKEPAASAAAFPSQRTSWGFLQSLVSIKQEKPADPEEQPSHHHHHHHHYGGLFAGAEERSPGLGGGEGGSHGVIQDLSLLHQHAQQQPAQHHRDVLLSSGSRTDEHGNQEPKQDANVKKAKRPKPESQGIKAKRKPSASSKPLVGEGEGAVLSPSQKPHICDHCSAAFRSSYHLRRHVLIHTGERPFQCSQCSMGFIQKYLLQRHEKIHSREKPFGCDQCSMKFIQKYHMERHKRTHSGEKPYKCDTCQQYFSRTDRLLKHRRTCGEAIAKGAASAEPGSSNHNSMGNLAVLSQGNTSSSRRKSKSKSIAIENKEHKTGKTNESQMSNNINMQSYSVEMPTVSTSGSIIGTGIDELQKRVPKLIFKKGSRKNADKSYLNFVSPLPDVVGQKSLSGKPGGSLGIVSNNSVETISLLQSTSGKQGPISSNYDDAMQFSKKRRYLPTASSNSAFSINVGHMVSQQSVIQSAGVSVLDNEAPLSLIDSSALNAEIKSCHDKSGIPDEVLQSILDQYSGKSETQKEDPFNLTEPRVDLHTSGEHSELVQEENLSPGTQTPSNDKTSMLQEYSKYLQQAFEKSTNAGFTLGHGFQFVSLSSPLHNHTLFPEKQIYTTSPLECGFGQSVTSVLPSSLPKPPFGMLFGSQPGLYLSALDATHQQLTPSQELDDLIDSQKNLETSSAFQSSSQKLTSQKEQQKNLESSTSFQIPSQELASQIDPQKDIEPRTTYQIENFAQAFGSQFKSGSRVPMTFITNSNGEVDHRVRTSVSDFSGYTNMMSDVSEPCSTRVKTPTSQSYR"
4,binds,"WAPL (protein, UniProt Q65Z40 1-1200) MTSRFGKTYSRKGGNGSSKFDEVFSNKRTTLSTKWGETTFMAKLGQKRPNFKPDIQEIPKKPKVEEEDTGDPFGFDSDDESLPVSSKNLAQGKGSSYSESSEAAQLEEVTSVFEANSKCSHVVGEDSFASDRCLLVEDTLIGKEKSISRIPEDNANKSSCTKLLTSDKVENFSEEHEKNSHHFHKNAEDSTKKPNAETAVASEYKADETKETNDTWNSQSGKRTESPSESCPVKGSVRTGLYEWDNDFEDIRSEDCILSLDNESLLEMKDEDLKNRIGGLENLNETFEEDIIQSVLRPSNCRTYCRANKARSSQGASNFDKLMDGTSQSLAKANSESSKDGLNQAKKGSASCGTSFRGTVGRTRDYTVLHPSCLSVCNVTIQDTMERSMDEFTASTPADLGEAGRLRKKADIATSKTTTRFRPSNTKSKKDVKLEFFGFEDHDETGGDEGGSGSSNYKIKYFGFDDLSESEDDDDDDCQVERKKDKKRTKTAPSPSQQPPPESSDNSQDSQSSTNNAENLDFTEDLPGVPESVKKPISKQGDKSKENTRKIFSGPKRSPTKAVYNARHWNHPDSEELPGPPIAKPQRVTVRLSSKEPNQKDDGVFKAPAPPLKVIKTVTIPTQPYQEIVTALKCRKEDKELYTVVQHVKHFNDVVEFGENQEFTDDIEYLLSGLKSTQPLNTRCLSVISLATKCAMPSFRMHLRAHGMVAMVFKTLDDSQHHQNLSLCTAALMYILSRDRLNMDLDRASLDLMIRLLELEQDASSAKLLNEKDMNKIKEKIRRLCETVHNKHLDLENITTGHLAMETLLSLTSKRAGDWFKEELRLLGGLDHIVDKVKECVDHLSRDDEDEEKLVASLWGAERCLRVLESVTVHNPENQSYLIAYKDSQLIISSAKALQHCEDLIQQYNRAENSICVADSNPLPYQNVTNHVGKAVEDCMRAIIGVLLNLTNDNEWGSTKTGEQEGLIGTAMNCVLQVPKYLPQEQRFDIRVLGLGLLINLVEYSARNRHCLVNMQTSCSFDSSFSSGEGDHSLRLAGQVHAVQALVQLFLERERAAQLAESKTDELIKDAPTTQHDKSGEWQETSGEIQWVSTEKTDGAEEKQKKEEEDEELDLNKALQHAGKHMEDCIVASYTALLLGCLCQESPINVTTVREYLPEGDFSIMTEMLKKFLSFMNLTCAVGTTGQKSISRVIEYLEHC"

# Continued, molecule first:
row,Molecule,binding
1,Gdf3 (from UniProt Q07104),binds
2,"STAG1 (protein, UniProt Q9D3E6 1-1258) MITSELPVLQDSTNETTAHSDAGSELEETEVKGKRKRGRPGRPPSTNKKPRKSPGEKSRIEAGIRGAGRGRANGHPQQNGDGDPVTLFEVVKLGKSAMQSVVDDWIELYKQDRDIALLDLINFFIQCSGCRGTVRIEMFRNMQNAEIIRKMTEEFDEDSGDYPLTMPGPQWKKFRSNFCEFIGVLIRQCQYSIIYDEYMMDTVISLLTGLSDSQVRAFRHTSTLAAMKLMTALVNVALNLSIHQDNTQRQYEAERNKMIGKRANERLELLLQKRKELQENQDEIENMMNSIFKGIFVHRYRDAIAEIRAICIEEIGVWMKMYSDAFLNDSYLKYVGWTLHDRQGEVRLKCLKALQSLYTNRELFPKLELFTNRFKDRIVSMTLDKEYDVAVEAIRLVTLILHGSEEALSNEDCENVYHLVYSAHRPVAVAAGEFLHKKLFSRHDPQAEEALAKRRGRNSPNGNLIRMLVLFFLESELHEHAAYLVDSLWESSQELLKDWECMTELLLEEPVQGEEAMSDRQESALIELMVCTIRQAAEAHPPVGRGTGKRVLTAKERKTQIDDRNKLTEHFIITLPMLLSKYSADAEKVANLLQIPQYFDLEIYSTGRMEKHLDALLKQIKFVVEKHVESDVLEACSKTYSILCSEEYTIQNRVDIARSQLIDEFVDRFNHSVEDLLQEGEEADDDDIYNVLSTLKRLTSFHNAHDLTKWDLFGNCYRLLKTGIEHGAMPEQIVVQALQCSHYSILWQLVKITDGSPSKEDLLVLRKTVKSFLAVCQQCLSNVNTPVKEQAFMLLCDLLMIFSHQLMTGGREGLQPLVFNPDTGLQSELLSFVMDHVFIDQDEENQSMEGDEEDEANKIEALHKRRNLLAAFSKLIIYDIVDMHAAADIFKHYMKYYNDYGDIIKETLSKTRQIDKIQCAKTLILSLQQLFNELVQEQGPNLDRTSAHVSGIKELARRFALTFGLDQIKTREAVATLHKDGIEFAFKYQNQKGQEYPPPNLAFLEVLSEFSSKLLRQDKKTVHSYLEKFLTEQMMERREDVWLPLISYRNSLVTGGEDDRMSVNSGSSSSKTSSVRSKKGRPPLHRKRVEDESLDNTWLNRTDTMIQTPGPLPTPQLTSTVLRENSRPMGEQIQEPESEHGSEPDFLHNPQMQISWLGQPKLEDLNRKDRTGMNYMKVRAGVRHAVRGLMEEDAEPIFEDVMMSSRSQLEDMNEEFEDTMVIDLPPSRNRRERAELRPDFFDSAAIIEDDSGFGMPMF",binds
3,"Nr0b1 (protein, UniProt Q61066 1-472) MAGEDHPWQGSILYNLLMSAKQKHASQEEREVRLGAQCWGCACGAQPVLGGERLSGGQARSLLYRCCFCGENHPRQGGILYSMLTNARQPSVATQAPRARFGAPCWGCACGSAEPLVGREGLPAGQAPSLLYRCCFCGEEHPRQGSILYSLLTSAQQTHVSREAPEAHRRGEWWQLSYCTQSVGGPEGLQSTQAMAFLYRSYVCGEEQPQQISVASGTPVSADQTPATPQEQPRAPWWDASPGVQRLITLKDPQVVCEAASAGLLKTLRFVKYLPCFQILPLDQQLVLVRSCWAPLLMLELAQDHLHFEMMEIPETNTTQEMLTTRRQETEGPEPAEPQATEQPQMVSAEAGHLLPAAAVQAIKSFFFKCWSLNIDTKEYAYLKGTVLFNPDLPGLQCVKYIEGLQWRTQQILTEHIRMMQREYQIRSAELNSALFLLRFINSDVVTELFFRPIIGAVSMDDMMLEMLCAKL",binds
